Reference: doi:10.1101/2022.09.17.508354
No constants are given. Whether binding was seen depends on the method and setting. For some assays here: Binding seen in cells or lysates may run through a third protein. Some results given as binding are weak or reduced against the parent protein; the word gives no strength. For some assays here: Sequences can lack the tags named with a protein.

Amino acid sequences for entries named in this document (tags omitted). Residues count along the entry.
UniProt Q6ZLZ9: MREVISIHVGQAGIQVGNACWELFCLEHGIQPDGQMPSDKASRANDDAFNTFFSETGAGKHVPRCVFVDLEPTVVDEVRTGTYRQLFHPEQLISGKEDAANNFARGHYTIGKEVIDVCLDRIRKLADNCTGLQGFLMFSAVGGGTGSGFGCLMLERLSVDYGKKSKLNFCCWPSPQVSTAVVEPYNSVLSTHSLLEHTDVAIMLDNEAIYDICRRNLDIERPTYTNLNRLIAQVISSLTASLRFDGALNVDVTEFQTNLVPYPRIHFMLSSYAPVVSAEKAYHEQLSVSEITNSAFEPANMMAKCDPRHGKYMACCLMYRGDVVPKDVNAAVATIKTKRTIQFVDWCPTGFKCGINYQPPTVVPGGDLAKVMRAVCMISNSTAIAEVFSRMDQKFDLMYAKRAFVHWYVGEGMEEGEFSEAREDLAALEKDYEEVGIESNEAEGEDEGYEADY
UniProt Q8I0U8, residues 20-1694: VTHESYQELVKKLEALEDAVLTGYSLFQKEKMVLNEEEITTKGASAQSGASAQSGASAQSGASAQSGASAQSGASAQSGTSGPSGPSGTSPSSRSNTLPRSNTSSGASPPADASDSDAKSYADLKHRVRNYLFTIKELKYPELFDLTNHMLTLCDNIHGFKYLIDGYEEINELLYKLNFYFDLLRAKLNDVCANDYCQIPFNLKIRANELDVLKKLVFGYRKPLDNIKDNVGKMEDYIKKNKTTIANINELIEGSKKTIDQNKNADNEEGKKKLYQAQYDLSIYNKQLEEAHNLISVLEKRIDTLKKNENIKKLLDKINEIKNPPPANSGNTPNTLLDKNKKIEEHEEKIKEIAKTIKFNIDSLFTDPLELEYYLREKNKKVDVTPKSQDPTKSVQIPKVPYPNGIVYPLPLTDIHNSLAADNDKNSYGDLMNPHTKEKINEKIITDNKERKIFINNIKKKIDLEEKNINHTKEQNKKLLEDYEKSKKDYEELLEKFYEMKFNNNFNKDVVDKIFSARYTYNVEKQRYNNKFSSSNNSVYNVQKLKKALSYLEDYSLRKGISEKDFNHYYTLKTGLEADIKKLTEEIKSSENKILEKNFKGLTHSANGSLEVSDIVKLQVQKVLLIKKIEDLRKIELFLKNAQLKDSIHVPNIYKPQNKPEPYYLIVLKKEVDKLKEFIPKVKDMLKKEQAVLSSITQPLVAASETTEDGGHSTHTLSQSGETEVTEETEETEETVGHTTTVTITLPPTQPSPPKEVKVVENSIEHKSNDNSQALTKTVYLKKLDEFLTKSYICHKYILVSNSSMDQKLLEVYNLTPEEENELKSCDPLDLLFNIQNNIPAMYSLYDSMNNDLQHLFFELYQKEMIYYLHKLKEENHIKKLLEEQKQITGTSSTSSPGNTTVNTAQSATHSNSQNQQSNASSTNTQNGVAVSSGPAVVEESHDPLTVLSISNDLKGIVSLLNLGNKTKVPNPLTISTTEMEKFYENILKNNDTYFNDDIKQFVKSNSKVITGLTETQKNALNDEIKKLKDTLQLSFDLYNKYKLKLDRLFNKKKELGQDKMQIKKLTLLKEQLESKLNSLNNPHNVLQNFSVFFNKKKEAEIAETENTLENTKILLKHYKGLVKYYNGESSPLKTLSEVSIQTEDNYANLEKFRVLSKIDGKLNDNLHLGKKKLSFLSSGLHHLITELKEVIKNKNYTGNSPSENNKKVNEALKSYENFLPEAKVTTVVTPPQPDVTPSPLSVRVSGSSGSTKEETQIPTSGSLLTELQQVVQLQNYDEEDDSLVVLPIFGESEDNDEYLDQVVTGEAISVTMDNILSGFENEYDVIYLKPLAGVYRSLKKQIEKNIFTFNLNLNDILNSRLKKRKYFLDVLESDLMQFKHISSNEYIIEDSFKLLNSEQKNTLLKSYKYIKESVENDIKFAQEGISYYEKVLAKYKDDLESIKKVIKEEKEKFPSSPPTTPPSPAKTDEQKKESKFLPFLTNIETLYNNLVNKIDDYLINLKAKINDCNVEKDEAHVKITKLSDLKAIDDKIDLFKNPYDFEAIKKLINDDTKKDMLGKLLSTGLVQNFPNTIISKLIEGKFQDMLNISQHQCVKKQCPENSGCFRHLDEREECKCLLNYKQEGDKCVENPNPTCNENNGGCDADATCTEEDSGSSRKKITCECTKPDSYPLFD

Key:
[1] = biological target: T1, recombinant 6x-His-PfPFD4 (Plasmodium falciparum 3D7 prefoldin subunit 4) (Plasmodium falciparum 3D7) (UniProt Q8I3A4); assay: ELISA
T1 sequence: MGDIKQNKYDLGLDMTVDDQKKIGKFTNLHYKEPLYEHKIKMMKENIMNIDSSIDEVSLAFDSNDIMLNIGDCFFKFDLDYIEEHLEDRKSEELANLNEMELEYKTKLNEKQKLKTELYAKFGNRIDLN

[2] = biological target: T2, recombinant 6x-His-PfPFD2 (Plasmodium falciparum 3D7 prefoldin subunit 2) (Plasmodium falciparum 3D7) (UniProt Q8ILS7); assay: ELISA
T2 sequence: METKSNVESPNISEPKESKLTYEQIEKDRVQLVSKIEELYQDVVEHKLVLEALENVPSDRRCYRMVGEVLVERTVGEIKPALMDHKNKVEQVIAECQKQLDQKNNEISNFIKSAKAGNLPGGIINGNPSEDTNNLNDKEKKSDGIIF

[3] = biological target: T3, recombinant 6x-His-PfPFD5 (Plasmodium falciparum 3D7 prefoldin subunit 5) (Plasmodium falciparum 3D7) (UniProt Q8II82); assay: ELISA
T3 sequence (chain, RED-NHS dye label (where it was the labelled partner in MST)): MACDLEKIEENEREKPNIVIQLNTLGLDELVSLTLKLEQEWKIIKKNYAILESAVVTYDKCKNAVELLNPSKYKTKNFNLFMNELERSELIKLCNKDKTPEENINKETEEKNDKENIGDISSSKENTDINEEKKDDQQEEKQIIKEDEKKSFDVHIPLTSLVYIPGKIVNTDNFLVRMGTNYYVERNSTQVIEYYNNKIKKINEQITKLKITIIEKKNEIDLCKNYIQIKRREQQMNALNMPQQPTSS

[4] = biological target: T4, native PfPFD2 in P. falciparum 3D7 parasite lysate (Plasmodium falciparum 3D7 (endogenous in parasite lysate)) (UniProt Q8ILS7); assay: co-IP
T4 sequence: T2 sequence

Pfα-tubulin-I (protein used in ELISA and SPR) (from UniProt Q6ZLZ9 1-453)
binding [1]: binds
binding [2]: binds
binding [3]: binds

native PfMSP-1 (merozoite surface protein 1) in P. falciparum 3D7 parasite lysate (from UniProt Q8I0U8 20-1694)
binding [4]: binds

native α-tubulin-I in P. falciparum 3D7 parasite lysate (from UniProt Q6ZLZ9 1-453)
binding [4]: binds
